Experimental data from PubChem BioAssay AID1296 (Columbia University Molecular Screening Center, 2008).
The whole screen tested about 130,000 compounds, of which about 1,000 (0.77%) were called active. Inconclusive means that the source gave no clear call. Such entries were picked first, then a sample of the others.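 The calls were made as follows: active = activation at 2 µM above a set limit, confirmed on inspection of the cell images; inconclusive = above the set limit but not confirmed on image inspection; inactive = the rest.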

experiment: activators of insulin promoter-driven GFP, primary screen, imaging, TRM-6 cells, eGFP reporter, cell count (AID 1296); details: at 2 µM, hits give high values, plate-scaled: unstimulated 0, stimulated control 100;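 also: share of cells whose green reporter signal exceeds an intensity cutoff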
Summary of the method: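 material = TRM-6 human fetal islet cells, insulin promoter–eGFP reporter | input = 1,000 TRM-6 cells seeded per well | benchmarks = stimulated versus unstimulated wells as plate controls | measured by = automated fluorescence imaging of paraformaldehyde-fixed, Hoechst-counterstained cells, green channel | schedule = compound exposure 48 h, 37 °C | reagent = tamoxifen at 0.75 µM added at seeding for reporter induction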

Structure (SMILES) | activation
O=C1c2cccc3c(N4CCCCC4)ccc(c23)C(=O)N1c1cccc(O)c1 | inconclusive: 345%
CCOC(=O)C1=C(C)NC(SCc2cc(=O)[nH][nH]2)=C(C#N)C1c1cccs1 (stereo unspecified) | inactive: 244%
COc1ccc(/C=N/NC(=O)CC2N=C(Cc3ccccc3)NNC2=O)cc1OC (stereo unspecified) | inactive: 7.14%
Cc1ccc2c(C)nc(Nc3nc(CSc4nnc(C)s4)cc(=O)[nH]3)nc2c1 | inconclusive: 76.5%
Cc1ccc(S(=O)(=O)N(CC(=O)N/N=C\c2cccs2)c2cccc3cccnc23)cc1 | inconclusive: 253%
C=CCNc1nc(NC(C)(C)CO)nc(OC)n1 | inactive: 35.7%
CCOc1cccc(OCCOCCn2cnc3ccccc3c2=O)c1 | inconclusive: 103%
CC1N(C)c2cccc3cccc(c23)N1C | inconclusive: 469%
CN(C)CCCn1c(N)c(C#N)c2nc(C#N)c(C#N)nc21 | inconclusive: 94.3%
O=C(C1CCC1)N1CCc2cc(S(=O)(=O)N3CCN(c4ccccn4)CC3)ccc21 | inactive: -3.7%
COc1cc(OC)c(NC(=O)C(=O)CC(=O)c2ccc(C)cc2C)cc1Cl | inactive: -9.09%
N#C/C(=C/c1cccc(C(F)(F)F)c1)c1nc(CCN2C(=O)c3ccccc3C2=O)cs1 | inconclusive: 219%
CCOC(=O)c1c(C)[nH]c(=S)c(C#N)c1-c1ccc(OC)cc1 | inconclusive: 131%
Cc1sc(NC(=O)CN2CCOCC2)c(C(=O)c2ccccc2)c1C | active: 75%
CCOC(=O)NN1C(=O)c2ccccc2NC12CCCC2 | inactive: 0%
Cc1onc(-c2ccccc2)c1C(=O)NCC1CCCO1 (stereo unspecified) | inconclusive: 527%
COc1ccc(OCC(=O)OC2CCN(C)CC2)cc1 | inactive: 3.57%
O=[N+]([O-])c1cc(C(F)(F)F)ccc1Oc1cccnc1[N+](=O)[O-] | inconclusive: 200%
CC(C(=O)NC1CCCC1)N(C(=O)c1snc(C(N)=O)c1N)c1ccc2c(c1)OCCO2 (stereo unspecified) | inconclusive: 146%
COc1ccc2nc(C)c(C(=O)NN)cc2c1 | inactive: -8.33%
CCn1nnc(NC(=O)c2ccccc2Br)n1 | inactive: -35.7%
Clc1ccc2nc(N3CCNCC3)nc(-c3ccccc3)c2c1 | inconclusive: 173%
Cc1cc(C)n(CC(O)Cn2c3ccc(Br)cc3c3cc(Br)ccc32)c(=O)n1 (stereo unspecified) | active: 77.1%

16 compounds already listed, sorted by length of the SMILES, high to low.
Structure (SMILES) | activation
N#C/C(=C/c1cccc(C(F)(F)F)c1)c1nc(CCN2C(=O)c3ccccc3C2=O)cs1 | inconclusive: 219%
CC(C(=O)NC1CCCC1)N(C(=O)c1snc(C(N)=O)c1N)c1ccc2c(c1)OCCO2 (stereo unspecified) | inconclusive: 146%
Cc1ccc(S(=O)(=O)N(CC(=O)N/N=C\c2cccs2)c2cccc3cccnc23)cc1 | inconclusive: 253%
O=C(C1CCC1)N1CCc2cc(S(=O)(=O)N3CCN(c4ccccn4)CC3)ccc21 | inactive: -3.7%
Cc1cc(C)n(CC(O)Cn2c3ccc(Br)cc3c3cc(Br)ccc32)c(=O)n1 (stereo unspecified) | active: 77.1%
Cc1ccc2c(C)nc(Nc3nc(CSc4nnc(C)s4)cc(=O)[nH]3)nc2c1 | inconclusive: 76.5%
COc1ccc(/C=N/NC(=O)CC2N=C(Cc3ccccc3)NNC2=O)cc1OC (stereo unspecified) | inactive: 7.14%
COc1cc(OC)c(NC(=O)C(=O)CC(=O)c2ccc(C)cc2C)cc1Cl | inactive: -9.09%
Cc1sc(NC(=O)CN2CCOCC2)c(C(=O)c2ccccc2)c1C | active: 75%
CN(C)CCCn1c(N)c(C#N)c2nc(C#N)c(C#N)nc21 | inconclusive: 94.3%
Clc1ccc2nc(N3CCNCC3)nc(-c3ccccc3)c2c1 | inconclusive: 173%
CCOc1cccc(OCCOCCn2cnc3ccccc3c2=O)c1 | inconclusive: 103%
Cc1onc(-c2ccccc2)c1C(=O)NCC1CCCO1 (stereo unspecified) | inconclusive: 527%
COc1ccc(OCC(=O)OC2CCN(C)CC2)cc1 | inactive: 3.57%
C=CCNc1nc(NC(C)(C)CO)nc(OC)n1 | inactive: 35.7%
CCn1nnc(NC(=O)c2ccccc2Br)n1 | inactive: -35.7%

More structures follow.

Structure (SMILES) | activation
CC(n1cnnn1)C12CC3CC(CC(C3)C1)C2 (stereo unspecified) | inconclusive: 510%
COC(=O)CCC(=O)Nc1cccc(Cl)c1 | inactive: 0%
COc1cc(C(=O)Nc2ccc(S(=O)(=O)Nc3nccc(C)n3)cc2)cc(OC)c1OC | inconclusive: 89.7%
Cc1ccc2cc(C#N)c(SCc3nnc(-c4ccccc4[N+](=O)[O-])o3)nc2c1 | inconclusive: 237%
COc1cc2c(cc1NC(=O)C(C)OC(=O)/C=C/c1ccc(OC(F)F)cc1)oc1ccccc12 (stereo unspecified) | inactive: 5.56%
CCCCOc1cccc(C(=O)NC(=S)Nc2cccc(C(F)(F)F)c2)c1 | inactive: 0%
O=C(CSc1nn(-c2ccccc2)c(=S)s1)Nc1ncccn1 | active: 377%
CC(CC(=O)NCc1cccnc1)c1ccccc1 (stereo unspecified) | inconclusive: 438%
O=C1c2cccnc2C(O)N1Cc1ccc(F)cc1 (stereo unspecified) | inactive: 6.45%
O=C(O)/C=C/C(=O)NCc1cn(-c2ccccc2)nc1-c1cccc(Br)c1 | inconclusive: 567% [cytotoxic]
C=CCn1c(SCCN2CCCC2)nc2c([nH]c3ccccc32)c1=O | inactive: -7.69%
O=C(N/N=C/c1c[nH]c2ccccc12)C1CC(=O)N(c2ccccc2)C1 (stereo unspecified) | inactive: -5.88%
Cc1ccc(NCc2ccccc2O)cc1 | inconclusive: 75%
C=CCn1c(SCC(=O)Nc2ccc(C(=O)OC(C)C)cc2)nnc1-c1cccs1 | inactive: 0%
CC1CC2(CCCCC2)Nc2c1ccc1ccccc21 (stereo unspecified) | inconclusive: 405%
Cc1cc(C)cc(C(=O)N2CC(=O)Nc3ccccc32)c1 | inconclusive: 193% [cytotoxic]
COc1ccc(-n2c(CNC(=O)c3cc(OC)c(OC)c(OC)c3)n[nH]c2=S)cc1 | inactive: 0%
CCC(CC)C(=O)Nc1cccc(C(=O)Nc2nccs2)c1 | active: 75.7%
CCN(CC)C(=O)c1cc2c(=O)c3cc(F)ccc3oc2nc1C | inconclusive: 443% [cytotoxic]
Cc1ccc(S(=O)(=O)NC(=O)COc2ccccc2C)cc1 | inactive: -81.2%
C=C(C)[C@@H]1CC=C(CN2CCC(CCOC)(C(=O)OCC)CC2)CC1 | inconclusive: 250%
CCCn1nnc(NC(=O)c2ccc(OCC)c(Cl)c2)n1 | active: 623%
CC(=O)OC1OCCOC1NC(=S)Nc1ccc(C)cc1 (stereo unspecified) | inactive: 0%

Structure (SMILES) | activation
CCCSc1cc(N2CCOCC2)nc(-c2ccccc2Cl)n1 | inactive: -8.11%
CC1=C(C(=O)OC(C)C)C2(O)C(=O)c3ccccc3C2(O)N1 (stereo unspecified) | inconclusive: 471%
CC(C)=NN/C(N)=N/C(=S)Nc1ccc(C)cc1 | inactive: -5.13%
CCCn1c(CN(C)Cc2ccccc2)nc2c1c(=O)n(C)c(=O)n2C | inactive: 0%
Cc1ccc2c(c1)nnn2C1CCN(S(=O)(=O)c2ccc(C(=O)N3C(C)CCCC3C)cc2)CC1 (stereo unspecified) | inconclusive: 208% [cytotoxic]
N#C/C(=C\c1cn(CC(=O)N2CCCC2)c2ccccc12)C(=O)NCc1ccc2c(c1)OCO2 | inconclusive: 254%
COC(=O)c1cc2c(-c3ccccc3)cc3ccccn3c-2c1C(=O)OC | inconclusive: 105%
CCOC(=O)C1CCCN(CCC(=O)Nc2ccc(C)cc2)C1 (stereo unspecified) | active: 528%
Cc1n[nH]c(C)c1Sc1ccccc1N=Cc1cc([N+](=O)[O-])ccc1O | inactive: -9.86%
CS(=O)(=O)N(CC(N)=O)c1cccc(Br)c1 | active: 514%
COc1ccc(N2C(=O)C3C(C2=O)C2C=CC3C23CC3)c([N+](=O)[O-])c1 (stereo unspecified) | inconclusive: 129%
COc1ccc(OC)c(CNC(=O)c2cc(=O)[nH]c3ccc(S(=O)(=O)N4CCCC4)cc23)c1 | inactive: 0%
O=C(NN=C(Cc1ccccc1)Cc1ccccc1)C1CC1 | inactive: 0%
O=C(O)CC1NC(=O)N(c2ccccc2)C1=O (stereo unspecified) | inconclusive: 500%
O=C1c2cccc3c([N+](=O)[O-])ccc(c23)C(=O)N1Cc1cccnc1 | inconclusive: 614%
Cc1onc(-c2ccccc2)c1C(=O)Nc1cccc(OC(C)C)c1 | inconclusive: 78.8%
O=C(O)c1cccc(N2C(=S)N=C(Nc3ccccc3)C23CCCCC3)c1 | inactive: -5.88%
Cc1cccc(OCc2nnc(NC(=O)Cc3cccs3)s2)c1 | inactive: 144%
O=C(NCc1ccccn1)c1ccc(Cl)cc1Cl | inactive: 272%
COc1ccc(CNC(=O)c2cnn3c(C(F)F)cc(C)nc23)cc1OC | inactive: 50%
CCOc1cccc(-c2nnc3n2N=C(c2cc(OC)ccc2OC)CS3)c1 | inconclusive: 256% [cytotoxic]
CN(CCCNC(=O)c1ccc(/C=N/O)nc1)CCCN(C)Cc1ccccc1 | inconclusive: 75%
O=C(Nc1ccccc1)Nc1ccccc1C(=O)NCc1ccccc1 | active: 76.7%

Structure (SMILES) | activation
Cc1ccc(-n2ncc(Br)c(Br)c2=O)cc1 | inconclusive: 400% [cytotoxic]
O=C(Nc1ccccc1Cl)OCc1cncs1 | inactive: -66.7%
CC(C)Oc1ccc(Cc2c(O)nc(NCCCN(C)C)[nH]c2=O)cc1 | inactive: 7.89%
Cc1ccccc1Oc1cc(-n2ncc(Cl)c(Cl)c2=O)ncn1 | active: 270%
Cc1ccc(Cn2cnc3sc4c(c3c2=O)CCC4)c(C)c1 | inconclusive: 431%
COc1ccc(OCCSc2nnc(CCNC(=O)c3ccc(Cl)c(Cl)c3)n2C)cc1 | inconclusive: 158%
CCOC(=O)N1CCC(Nc2c(-c3ccccc3)c(=O)c2=O)CC1 | active: 85.9%
CCc1ccc(NC(=O)C2(c3ccccc3)CC2(Cl)Cl)cc1 (stereo unspecified) | inconclusive: 220%
O=C(NCc1ccccc1)C(=O)NCC1OCCN1C(=O)c1ccc(Cl)cc1 (stereo unspecified) | inconclusive: 178%
Cc1ccc(CNC(=O)C2CCN(S(=O)(=O)c3c(C)noc3C)CC2)cc1 | active: 75.9%
CSc1ccc(N2CCN(CCCNC(=O)Nc3ccccc3F)CC2)cc1 | inconclusive: 104%
CCOc1ccc2[nH]c(=O)c(CN(CCO)C(=O)c3ccc(OC)c(OC)c3)cc2c1 | inactive: -3.33%
Cc1ccccc1CN1CCN(CC2CC3C=CC2C3)CC1 (stereo unspecified) | inactive: 4.22%
CCOC(=O)C(Cc1ccc(NC(=O)/C(=C/c2ccccc2)NC(=O)c2ccccc2)cc1)N1C(=O)c2ccccc2C1=O (stereo unspecified) | inconclusive: 203%
CC1=C(C(=O)OCC2CCCO2)C(c2ccncc2)C2=C(CC(C)(C)CC2=O)N1 (stereo unspecified) | inconclusive: 473%
COc1ccc(-c2nc(CSCC(=O)N3CCc4ccccc43)c(C)o2)cc1OC | inconclusive: 257%
O=C(Nc1nnc(-c2ccccc2Cl)o1)c1ccc(S(=O)(=O)N2CCCCCC2)cc1 | active: 400%
COc1cc(C(=O)Nc2cc(C(F)(F)F)ccc2N2CCOCC2)ccc1O | inconclusive: 492%
CCN(CC)CCN(CC(=O)N(C1CCCCC1)C1CCCCC1)C(=O)c1ccco1 | inactive: 7.14%
Cc1ccc(S(=O)(=O)NCCNc2ccc([N+](=O)[O-])cc2C(F)(F)F)cc1 | inconclusive: 178% [cytotoxic]
O=Cc1cn(CC(=O)NCC2CCCO2)c2ccccc12 (stereo unspecified) | inconclusive: 414%
O=C(NCc1nc2ccccc2[nH]1)c1ccc(S(=O)(=O)N2CCCC2)cc1 | inconclusive: 233%
